Laboratory results: PubChem BioAssay AID1259424 (University of Nebraska Medical Center, 2018)
This is one part, drawn at random, of about 14,000 deposited reagents. 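Higher correlation or smaller distance means closer resemblance to KSR1 loss; control wells, including KSR1 knockdowns, recur on many plates.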 Further read-outs or replicates are left out here. Not stated in the record: the time to read-out.

Assay: 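Rank knockdowns across the genome by resemblance to the KSR1 depletion profile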 (primary screen)
Cell system: human HCT116 colon cancer cells
Reagent: siRNA pool against human genes, 50 nM
Measured: 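Six signature mRNAs by branched-DNA multiplex assay, scaled to two housekeeping genes and non-targeting median, log2; matched to mean KSR1 knockdown profile by Pearson correlation and euclidean distance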
Reading the numbers: mean correlation with KSR1 profile and KSR1 correlation: higher = expression change more like KSR1 knockdown; mean distance from KSR1 profile: higher = expression change less like KSR1 knockdown

mean correlation with KSR1 profile | mean distance from KSR1 profile | KSR1 correlation, replicate 1 | gene
0.443 | 1.64 | 0.387 | GSTA4
0.477 | 1.32 | 0.327 | CCDC3
-0.409 | 2.81 | -0.254 | GPR137B
0.0325 | 1.86 | -0.659 | PHAF1
0.285 | 1.31 | 0.232 | DCLRE1C
-0.891 | 2.62 | -0.825 | RNF121
0.602 | 2.12 | 0.79 | PRKAB2
0.0505 | 1.54 | 0.195 | MTMR8
0.261 | 1.45 | 0.11 | GALNT12
-0.452 | 1.97 | -0.273 | POU3F1
-0.726 | 3.09 | -0.641 | LYZL6
0.0516 | 1.74 | 0.144 | ACACB
0.553 | 0.754 | 0.279 | SRP19
-0.478 | 1.72 | -0.223 | PLRG1
-0.307 | 1.9 | -0.346 | OR7E35P
-0.55 | 3.59 | 0.0143 | FZD6
-0.661 | 1.37 | -0.213 | IKZF4
-0.126 | 2.61 | 0.123 | SGSM2
0.69 | 2.72 | 0.688 | TAFAZZIN
-0.458 | 1.78 | -0.567 | ODAD2
0.304 | 2.94 | 0.396 | PLEKHS1
-0.39 | 1.88 | -0.289 | AMY2B
0.416 | 2.04 | 0.146 | KLHL15
0.168 | 1.8 | 0.0992 | TEX35
-0.532 | 3.75 | -0.401 | PSMC1
0.386 | 2.65 | 0.287 | NPTXR
-0.177 | 1.67 | -0.121 | PACC1
0.26 | 2.53 | 0.056 | STMN1
0.52 | 1.19 | 0.566 | TRPV1
-0.312 | 1.94 | -0.353 | TCTA
-0.562 | 3.64 | -0.0409 | AGPS
-0.807 | 2.71 | -0.884 | ARID1B
-0.529 | 1.58 | -0.194 | VIT
0.683 | 4.84 | 0.8 | FZD7

Taken from above:
Under “mean distance from KSR1 profile”, PLEKHS1 shows 2.94
Value for SRP19 in “mean correlation with KSR1 profile”: 0.553
PHAF1, KSR1 correlation, replicate 1: -0.659
Result of FZD6 under “mean distance from KSR1 profile”: 3.59
IKZF4, mean distance from KSR1 profile = 1.37
